# Experimental data from publication PMC7239059.
# Chains of the proteins cited; added tags and fusions are not shown. Residues count along the entry.
# UniProt P0DTD3: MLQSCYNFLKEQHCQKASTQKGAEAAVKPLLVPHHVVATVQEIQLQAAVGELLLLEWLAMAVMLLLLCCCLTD
# UniProt P0DTC4: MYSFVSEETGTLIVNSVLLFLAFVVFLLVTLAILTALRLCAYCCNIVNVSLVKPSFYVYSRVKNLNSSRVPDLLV
# UniProt P0DTD2: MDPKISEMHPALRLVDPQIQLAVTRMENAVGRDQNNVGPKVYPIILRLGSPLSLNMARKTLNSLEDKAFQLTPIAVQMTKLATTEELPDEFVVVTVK
# UniProt P33527: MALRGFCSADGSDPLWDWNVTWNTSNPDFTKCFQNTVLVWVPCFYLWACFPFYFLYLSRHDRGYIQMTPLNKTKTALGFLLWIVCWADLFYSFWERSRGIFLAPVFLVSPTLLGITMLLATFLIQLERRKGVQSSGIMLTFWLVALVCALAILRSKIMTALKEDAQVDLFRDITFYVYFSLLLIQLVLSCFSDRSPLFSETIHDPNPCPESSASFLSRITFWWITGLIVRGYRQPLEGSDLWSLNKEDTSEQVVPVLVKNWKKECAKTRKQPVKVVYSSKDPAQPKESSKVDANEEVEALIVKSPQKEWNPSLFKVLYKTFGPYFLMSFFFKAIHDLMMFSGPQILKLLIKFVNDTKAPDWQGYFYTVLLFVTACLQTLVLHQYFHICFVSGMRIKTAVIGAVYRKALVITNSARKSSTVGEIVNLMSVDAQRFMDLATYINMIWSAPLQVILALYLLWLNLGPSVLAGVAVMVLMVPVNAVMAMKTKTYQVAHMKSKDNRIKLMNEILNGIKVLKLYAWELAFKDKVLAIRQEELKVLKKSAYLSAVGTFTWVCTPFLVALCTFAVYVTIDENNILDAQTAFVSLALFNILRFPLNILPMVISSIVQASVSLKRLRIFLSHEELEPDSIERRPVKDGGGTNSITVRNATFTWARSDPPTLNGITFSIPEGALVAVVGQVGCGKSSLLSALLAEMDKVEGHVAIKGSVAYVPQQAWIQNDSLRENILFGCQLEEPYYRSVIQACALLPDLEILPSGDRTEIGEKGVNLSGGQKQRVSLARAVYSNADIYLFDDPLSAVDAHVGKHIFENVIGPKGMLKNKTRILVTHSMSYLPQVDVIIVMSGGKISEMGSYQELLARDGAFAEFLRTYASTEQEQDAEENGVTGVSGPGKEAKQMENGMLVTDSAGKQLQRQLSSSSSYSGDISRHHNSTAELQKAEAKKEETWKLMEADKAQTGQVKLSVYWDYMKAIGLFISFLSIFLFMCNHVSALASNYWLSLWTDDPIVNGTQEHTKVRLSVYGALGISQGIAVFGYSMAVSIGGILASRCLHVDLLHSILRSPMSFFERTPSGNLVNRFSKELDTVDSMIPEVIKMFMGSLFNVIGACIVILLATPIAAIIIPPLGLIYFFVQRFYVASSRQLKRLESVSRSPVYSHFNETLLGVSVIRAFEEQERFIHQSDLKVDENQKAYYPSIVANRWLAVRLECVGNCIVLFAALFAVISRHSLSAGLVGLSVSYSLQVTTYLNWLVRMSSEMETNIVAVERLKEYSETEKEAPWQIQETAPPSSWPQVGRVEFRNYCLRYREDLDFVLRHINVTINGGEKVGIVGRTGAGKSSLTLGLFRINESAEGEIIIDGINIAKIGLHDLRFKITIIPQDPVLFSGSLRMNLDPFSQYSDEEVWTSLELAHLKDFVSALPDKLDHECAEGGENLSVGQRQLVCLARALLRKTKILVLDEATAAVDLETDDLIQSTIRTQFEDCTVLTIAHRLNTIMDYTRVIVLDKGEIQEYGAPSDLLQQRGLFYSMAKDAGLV
# UniProt P25440: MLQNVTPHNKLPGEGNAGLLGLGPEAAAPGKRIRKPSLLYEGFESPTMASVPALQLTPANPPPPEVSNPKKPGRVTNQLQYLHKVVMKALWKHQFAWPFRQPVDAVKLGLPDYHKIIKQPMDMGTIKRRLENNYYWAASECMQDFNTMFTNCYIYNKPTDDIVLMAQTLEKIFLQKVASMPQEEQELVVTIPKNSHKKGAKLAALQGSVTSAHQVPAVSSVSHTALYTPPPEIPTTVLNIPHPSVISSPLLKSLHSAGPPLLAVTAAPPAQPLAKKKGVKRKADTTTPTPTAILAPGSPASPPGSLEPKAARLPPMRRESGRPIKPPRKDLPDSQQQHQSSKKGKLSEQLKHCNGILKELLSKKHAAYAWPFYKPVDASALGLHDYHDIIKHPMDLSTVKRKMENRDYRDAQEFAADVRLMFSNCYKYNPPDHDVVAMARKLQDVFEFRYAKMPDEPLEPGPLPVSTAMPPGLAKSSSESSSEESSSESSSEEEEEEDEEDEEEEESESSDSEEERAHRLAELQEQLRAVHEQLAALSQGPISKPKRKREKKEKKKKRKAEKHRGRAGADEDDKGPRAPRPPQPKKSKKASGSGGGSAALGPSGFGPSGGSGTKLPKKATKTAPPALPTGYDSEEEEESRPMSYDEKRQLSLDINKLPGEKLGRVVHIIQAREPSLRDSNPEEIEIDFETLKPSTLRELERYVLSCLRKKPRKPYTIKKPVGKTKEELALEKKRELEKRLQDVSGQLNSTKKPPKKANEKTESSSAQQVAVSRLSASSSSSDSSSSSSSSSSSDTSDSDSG
# UniProt Q7KZI7: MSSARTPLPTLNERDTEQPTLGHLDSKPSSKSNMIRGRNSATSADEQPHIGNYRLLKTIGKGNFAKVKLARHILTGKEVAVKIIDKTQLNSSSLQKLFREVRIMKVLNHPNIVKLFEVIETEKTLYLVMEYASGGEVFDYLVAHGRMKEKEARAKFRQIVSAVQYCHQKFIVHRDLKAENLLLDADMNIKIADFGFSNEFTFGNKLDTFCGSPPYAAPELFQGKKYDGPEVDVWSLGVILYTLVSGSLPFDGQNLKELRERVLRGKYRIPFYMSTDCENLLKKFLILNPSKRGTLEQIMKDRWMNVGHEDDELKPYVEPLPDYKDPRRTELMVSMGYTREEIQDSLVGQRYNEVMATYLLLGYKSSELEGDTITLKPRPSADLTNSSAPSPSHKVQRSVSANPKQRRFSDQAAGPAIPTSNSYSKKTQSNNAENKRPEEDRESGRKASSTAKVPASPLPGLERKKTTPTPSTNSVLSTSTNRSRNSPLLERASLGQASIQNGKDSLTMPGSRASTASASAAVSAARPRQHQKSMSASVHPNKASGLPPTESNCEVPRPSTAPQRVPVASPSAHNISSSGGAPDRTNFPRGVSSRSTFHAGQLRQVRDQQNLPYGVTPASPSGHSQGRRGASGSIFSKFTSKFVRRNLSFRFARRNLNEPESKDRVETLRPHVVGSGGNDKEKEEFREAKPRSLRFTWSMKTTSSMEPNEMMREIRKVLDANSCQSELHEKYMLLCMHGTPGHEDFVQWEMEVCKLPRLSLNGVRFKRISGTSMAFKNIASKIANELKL
# UniProt Q8TD19: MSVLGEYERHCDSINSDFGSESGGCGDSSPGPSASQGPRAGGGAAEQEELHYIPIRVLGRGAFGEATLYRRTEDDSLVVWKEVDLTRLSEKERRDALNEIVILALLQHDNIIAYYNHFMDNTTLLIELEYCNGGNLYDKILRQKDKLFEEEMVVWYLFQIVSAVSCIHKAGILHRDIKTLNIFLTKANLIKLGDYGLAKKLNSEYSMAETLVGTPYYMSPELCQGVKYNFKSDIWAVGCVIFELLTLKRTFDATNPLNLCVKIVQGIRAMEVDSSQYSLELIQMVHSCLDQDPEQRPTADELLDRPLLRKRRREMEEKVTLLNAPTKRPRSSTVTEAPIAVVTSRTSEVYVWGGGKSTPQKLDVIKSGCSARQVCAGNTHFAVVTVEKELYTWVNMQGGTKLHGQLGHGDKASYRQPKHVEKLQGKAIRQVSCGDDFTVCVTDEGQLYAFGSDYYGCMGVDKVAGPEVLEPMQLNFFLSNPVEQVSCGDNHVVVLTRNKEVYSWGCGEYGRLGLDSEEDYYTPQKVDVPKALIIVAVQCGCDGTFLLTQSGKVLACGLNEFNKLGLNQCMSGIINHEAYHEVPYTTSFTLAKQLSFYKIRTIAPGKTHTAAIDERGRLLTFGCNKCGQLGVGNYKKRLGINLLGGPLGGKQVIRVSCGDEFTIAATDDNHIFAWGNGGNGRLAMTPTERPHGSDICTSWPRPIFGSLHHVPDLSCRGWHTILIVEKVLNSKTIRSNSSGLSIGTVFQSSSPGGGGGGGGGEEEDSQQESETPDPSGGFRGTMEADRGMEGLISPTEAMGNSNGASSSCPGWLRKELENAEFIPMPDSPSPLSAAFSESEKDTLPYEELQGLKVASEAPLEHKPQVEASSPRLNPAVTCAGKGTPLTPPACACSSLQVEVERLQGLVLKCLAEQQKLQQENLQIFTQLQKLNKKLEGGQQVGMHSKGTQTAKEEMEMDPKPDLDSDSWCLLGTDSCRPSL
# UniProt Q86UT6, residues 87-975: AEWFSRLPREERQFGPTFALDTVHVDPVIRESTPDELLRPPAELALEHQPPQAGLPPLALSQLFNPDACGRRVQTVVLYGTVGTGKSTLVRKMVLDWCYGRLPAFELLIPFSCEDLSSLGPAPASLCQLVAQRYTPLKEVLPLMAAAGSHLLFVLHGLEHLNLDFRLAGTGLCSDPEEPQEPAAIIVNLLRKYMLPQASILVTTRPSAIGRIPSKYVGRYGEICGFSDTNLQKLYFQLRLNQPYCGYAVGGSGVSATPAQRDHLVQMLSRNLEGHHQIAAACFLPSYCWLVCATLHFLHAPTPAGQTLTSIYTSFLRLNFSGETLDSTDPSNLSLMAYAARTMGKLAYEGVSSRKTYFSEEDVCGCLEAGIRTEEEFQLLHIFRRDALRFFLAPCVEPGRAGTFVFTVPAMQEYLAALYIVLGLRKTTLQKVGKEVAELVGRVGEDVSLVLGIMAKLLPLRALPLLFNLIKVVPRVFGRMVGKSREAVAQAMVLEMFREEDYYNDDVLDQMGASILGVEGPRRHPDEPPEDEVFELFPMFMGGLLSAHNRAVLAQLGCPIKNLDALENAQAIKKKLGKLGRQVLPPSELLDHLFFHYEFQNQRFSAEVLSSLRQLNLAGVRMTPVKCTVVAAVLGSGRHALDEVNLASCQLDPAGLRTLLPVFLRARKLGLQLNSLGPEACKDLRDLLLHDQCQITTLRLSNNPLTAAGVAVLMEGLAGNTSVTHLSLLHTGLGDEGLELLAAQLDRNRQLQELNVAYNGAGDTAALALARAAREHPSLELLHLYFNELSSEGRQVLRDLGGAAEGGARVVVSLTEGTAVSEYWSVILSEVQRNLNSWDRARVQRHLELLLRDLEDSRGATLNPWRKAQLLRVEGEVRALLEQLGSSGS
# UniProt Q9H7Z7: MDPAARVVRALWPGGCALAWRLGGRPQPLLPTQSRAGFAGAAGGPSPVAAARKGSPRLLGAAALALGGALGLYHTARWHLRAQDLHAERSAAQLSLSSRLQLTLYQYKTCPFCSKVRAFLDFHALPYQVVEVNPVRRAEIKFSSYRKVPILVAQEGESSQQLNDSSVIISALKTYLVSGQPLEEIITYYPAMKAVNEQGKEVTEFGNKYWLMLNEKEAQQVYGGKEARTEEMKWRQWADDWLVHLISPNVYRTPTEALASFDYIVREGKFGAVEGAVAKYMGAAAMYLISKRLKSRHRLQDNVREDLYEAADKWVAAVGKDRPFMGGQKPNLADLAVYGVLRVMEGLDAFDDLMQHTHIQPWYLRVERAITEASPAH
# UniProt Q13546: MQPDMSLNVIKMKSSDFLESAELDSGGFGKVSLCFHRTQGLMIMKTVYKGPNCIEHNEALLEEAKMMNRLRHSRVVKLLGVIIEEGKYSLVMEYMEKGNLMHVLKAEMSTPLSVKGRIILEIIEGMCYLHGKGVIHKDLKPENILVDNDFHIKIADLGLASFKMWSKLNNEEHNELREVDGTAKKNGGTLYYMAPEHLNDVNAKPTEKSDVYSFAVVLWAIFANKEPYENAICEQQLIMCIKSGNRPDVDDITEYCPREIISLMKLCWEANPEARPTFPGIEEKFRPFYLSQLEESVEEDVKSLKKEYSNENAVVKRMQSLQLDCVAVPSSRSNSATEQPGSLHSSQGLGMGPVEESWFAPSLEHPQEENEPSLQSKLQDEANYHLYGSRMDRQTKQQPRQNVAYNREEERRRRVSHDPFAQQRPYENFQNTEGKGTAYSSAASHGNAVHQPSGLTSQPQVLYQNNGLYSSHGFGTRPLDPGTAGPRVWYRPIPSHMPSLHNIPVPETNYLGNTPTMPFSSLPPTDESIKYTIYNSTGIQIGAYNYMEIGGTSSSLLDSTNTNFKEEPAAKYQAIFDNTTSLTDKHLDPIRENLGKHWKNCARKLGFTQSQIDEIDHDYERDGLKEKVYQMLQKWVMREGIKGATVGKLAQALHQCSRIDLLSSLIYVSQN
# UniProt Q5BJF2: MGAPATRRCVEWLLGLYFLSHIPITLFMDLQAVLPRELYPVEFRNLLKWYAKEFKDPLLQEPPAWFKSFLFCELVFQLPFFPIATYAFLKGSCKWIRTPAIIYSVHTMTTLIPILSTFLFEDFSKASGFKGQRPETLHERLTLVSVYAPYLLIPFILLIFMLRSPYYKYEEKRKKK
# Assays:
# Assay in all cases: affinity purification with mass spectrometry
# [1] = target: SARS-CoV-2 Orf9c (SARS-CoV-2) (UniProt P0DTD3)
# [2] = target: SARS-CoV-2 Nsp6 (SARS-CoV-2) (UniProt P0DTD1)
# [3] = target: SARS-CoV-2 Envelope (E) (SARS-CoV-2) (UniProt P0DTC4)
# [4] = target: SARS-CoV-2 Nsp13 (SARS-CoV-2) (UniProt P0DTD1)
# [5] = target: SARS-CoV-2 Nsp7 (SARS-CoV-2) (UniProt P0DTD1)
# [6] = target: SARS-CoV-2 Nsp2 (SARS-CoV-2) (UniProt P0DTD1)
# [7] = target: SARS-CoV-2 Nsp14 (SARS-CoV-2) (UniProt P0DTD1)
# [8] = target: SARS-CoV-2 Orf9b (SARS-CoV-2) (UniProt P0DTD2)
# [9] = target: SARS-CoV-2 Nsp9 (SARS-CoV-2) (UniProt P0DTD1)
# [10] = target: SARS-CoV-2 Nsp12 (SARS-CoV-2) (UniProt P0DTD1)
substance,measurement,setting,value
ABCC1 (from UniProt P33527 1-1531),binding,[1],binds
ATP6AP1 (from UniProt Q15904 42-470),binding,[2],binds
BRD2 (from UniProt P25440 1-801),binding,[3],binds
CEP250 (from UniProt Q9BV73 1-2442),binding,[4],binds
COMT (from UniProt P21964 1-271),binding,[5],binds
EIF4H (from UniProt Q15056 1-248),binding,[6],binds
F2RL1 (from UniProt P55085),binding,[1],binds
Inosine-5'-monophosphate dehydrogenase (IMPDH2) (from UniProt P12268 1-514),binding,[7],binds
MARK2 (from UniProt Q7KZI7 1-788),binding,[8],binds
MARK3 (from UniProt P27448 1-753),binding,[8],binds
NEK9 (from UniProt Q8TD19 1-979),binding,[9],binds
NLRX1 (from UniProt Q86UT6 87-975),binding,[1],binds
PTGES2 (from UniProt Q9H7Z7 1-377),binding,[5],binds
RIPK1 (from UniProt Q13546 1-671),binding,[10],binds
SIGMAR1 (from UniProt Q99720 1-223),binding,[2],binds
TANK-binding kinase 1-binding protein 1 (TBKBP1/SINTBAD) (from UniProt A7MCY6 1-615),binding,[4],binds
TMEM97 (from UniProt Q5BJF2 1-176),binding,[1],binds
leucine importer B(0)AT2 (SLC6A15) (from UniProt Q9H2J7 1-730),binding,[2],binds

# No constants are given. Whether binding was seen depends on the method and setting. In cells and extracts the contact can be indirect. Here binding means that the protein was enriched with, or labelled near, the bait; the list need not be complete.
